{"sequences": {"note": "Amino acid sequences for entries named in this document (tags omitted). Residues count along the entry.", "UniProt Q15109, residues 23-404": "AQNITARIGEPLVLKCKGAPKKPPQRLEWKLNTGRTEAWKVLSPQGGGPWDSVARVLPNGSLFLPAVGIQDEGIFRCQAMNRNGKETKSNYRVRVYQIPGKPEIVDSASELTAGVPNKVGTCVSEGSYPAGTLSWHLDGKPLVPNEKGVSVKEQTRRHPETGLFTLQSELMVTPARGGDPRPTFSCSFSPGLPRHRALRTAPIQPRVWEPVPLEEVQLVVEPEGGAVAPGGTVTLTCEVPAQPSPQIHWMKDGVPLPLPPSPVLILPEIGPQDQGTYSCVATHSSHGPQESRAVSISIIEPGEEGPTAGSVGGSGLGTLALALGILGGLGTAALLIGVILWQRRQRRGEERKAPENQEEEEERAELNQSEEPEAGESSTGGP"}, "source": "paper PMC5421902", "binders": {"B1": {"name": "myc-S100A7 (protein, UniProt P31151 1-101)", "chain": "MSNTQAERSIIGMIDMFHKYTRRDDKIEKPSLLTMMKENFPNFLSACDKKGTNYLADVFEKKDKNEDKKIDFSEFLSLLGDIATDYHKQSHGAAPCSGGSQ"}}, "target": "Flag-RAGE (UniProt Q15109)", "assay": "co-IP; Flag-RAGE and myc-S100A7 co-expressed in HEK293 (methods: 293T) cells for 48 h; lysates incubated with ANTI-FLAG M2 Affinity Gel at 4°C overnight, gel washed with PBS twice; Western blot with tag antibodies; pcDNA3-Flag empty vector as control", "note": "Results are given in words; binding and its absence hold for the method and conditions named. Binding seen in cells or lysates may run through a third protein. Some results given as binding are weak or reduced against the parent protein; the word gives no strength. Sequences can lack the tags named with a protein.", "data": [{"binder": "B1", "values": [{"measurement": "binding", "value": "binds"}]}]}
